Test results from the supplement of paper PMC8551327.
Where “and” joins values, the source holds several entries; their conditions need not be identical. Identical values can stand only once. Counter-ions that a name gives are not always drawn. The list shows a part of the results. Cut-off read from the data, not from the text of the source: active = 1.25 or more and inactive = the rest. Single values are uncertain, as repeats are few or missing.

The molecules below were run on Kcc2-LUC knock-in mouse primary cortical neurons (Kcc2 promoter reporter) (assay: Kcc2 promoter-driven luciferase activity relative to vehicle control (fold of vehicle (ratio)); higher = stronger Kcc2 promoter activation (Kcc2 expression enhancer)). Conditions: 100 nM; 48 h.

| Compound | Kcc2 promoter-driven luciferase activity |
| --- | --- |
| C[C@H]1Oc2cc3c(-c4c(O)cc(O)c5c(O)c6c(cc45)O[C@H](C)[C@@H](C)C6=O)c(O)cc(O)c3c(O)c2C(=O)[C@@H]1C [Chaetochromin A] | active: 1.33 |
| COc1cc2c3cc1Oc1c(OC)c(OC)cc4c1C(Cc1ccc(cc1)Oc1cc(ccc1O)CC3N(C)CC2)N(C)CC4 (configuration not stated) [Oxycanthine] | inactive: 0.81 |
| COc1cc([C@H]2c3cc4c(cc3C[C@@H]3COC(=O)[C@H]32)OCO4)cc(OC)c1OC [Deoxypodophyllotoxin; Anthricin] | inactive: 0.92 |
| COC(=O)C1=COC(C)C2CN3CCC4(C(=O)Nc5ccccc54)C3CC12 (configuration not stated) [Isopteropodin] | inactive: 0.713 |
| CC(=O)[O][Hg].c1ccc2c(c1)ccc1ccccc12 | inactive: 0.5 |
| C=C1C(C)C2C(Cc3ccccc3)NC(=O)C23C(OC(C)=O)/C=C/C(C)(O)CC(C)C/C=C/C3C1O (configuration not stated) [Kodocytochalasin 1] | inactive: 0.927 |
| CC1=C[C@H]2O[C@@H]3[C@H](O)[C@@H](O)[C@@](C)([C@@]2(CO)CC1)[C@]31CO1 | inactive: 0.58 |
| Cc1c2ccncc2c(C)c2c1[nH]c1ccccc12 [Ellipticine] | inactive: 0.52 |
| CCC1/C=C/C=C/CC(C)C(O)C(C)(O)C(=O)C(C)C(O)C(C)C(=O)C(C)C(O)C(C)/C=C/C(=O)OC2C(C)C(CC1)OC1(CCC(C)C(CC(C)O)O1)C2C.CCC1/C=C/C=C/CC(C)C(O)C(C)(O)C(=O)C(C)C(O)C(C)C(=O)C(C)C(O)C(C)/C=C/C(=O)OC2C(C)C(CC1)OC1(OC(CC(C)O)C(C)CC1=O)C2C.CCC1/C=C/C=C/CC(C)C(O)C(C)C(=O)C(C)C(O)C(C)C(=O)C(C)C(O)C(C)/C=C/C(=O)OC2C(C)C(CC1)OC1(CCC(C)C(CC(C)O)O1)C2C (configuration not stated) [Oligomycin A, B, and C] | inactive: 0.06 |
| CC[C@H](C)[C@H]1NC(=O)[C@@H](NC(=O)[C@@H](CC(C)C)N(C)C(=O)[C@@H]2CCCN2C(=O)C(C)O)[C@@H](C)OC(=O)[C@H](Cc2ccc(OC)cc2)N(C)C(=O)[C@@H]2CCCN2C(=O)[C@H](CC(C)C)NC(=O)[C@@H](C)C(=O)[C@H](C(C)C)OC(=O)C[C@@H]1O (some centres not stated) [Didemnin B] | inactive: 0.49 |
| CC(=O)[O][Hg][c]1c(C)c(C)c(C)c(C)c1C [Mercury, (acetyloxy)(pentamethylphenyl)-] | inactive: 0.49 |
| NP(=O)(Oc1c2occc2cc2ccc(=O)oc12)N(CCCl)CCCl (configuration not stated) | inactive: 1 |
| CC[C@@]1(O)C[C@H](O)c2c(O)c3c(c(O)c2[C@H]1C(=O)OC)C(=O)c1cccc(O)c1C3=O [epsilon.-Rhodomycinone] | inactive: 0.95 |
| CCCNC1=C(C)C(=O)C2=C(C1=O)[C@H](COC(N)=O)[C@]1(OC)[C@@H]3N[C@@H]3CN21 | inactive: 1.2 |
| CC1=C(N2CC2)C(=O)c2nc3n(c2C1=O)CCC3OC(=O)CCl (configuration not stated) | inactive: 1.12 |
| NC(=O)c1cn(C2OC(CO)C(O)C2O)c2ncnc(N)c12 (configuration not stated) | inactive: 1 |

| Compound | Kcc2 promoter-driven luciferase activity |
| --- | --- |
| CC(C)(Br)C(=O)C(Br)Br [1,1,3-Tribromo-3-mthyl-2-butanone] | inactive: 0.87 |
| CC(C)C(NC(=O)C(C(C)C)N(C)C)C(=O)N(C)C(C(=O)N1CCCC1C(=O)N1CCCC1C(=O)NCc1ccccc1)C(C)C (configuration not stated) | inactive: 0.83 |
| CC(C)c1oc(=O)cc2c1[C@@H](O)[C@H]1OC(=O)[C@@]3(C)[C@@H](O)[C@H]4O[C@H]4[C@@]2(C)[C@@H]13 [Nagilactone C] | inactive: 1.09 |
| O=C1OC(c2ccccc2)=N/C1=C\c1ccc(N(CCCl)CCCl)cc1 | inactive: 0.88 |
| C[C@H](N)C(=O)N[C@@H]1[C@H]2C(=C(O)C[C@@H](O)[C@@H]2O)C(=O)O[C@]1(C)C(Cl)Cl [Bactobolin] | inactive: 0.68 |
| C[n+]1cc2cc(O)c(O)cc2c2ccc3cc(O)c(O)cc3c21.c1ccncc1 | inactive: 0.83 |
| CC[C@@]1(O)C[C@H](O[C@H]2C[C@H](N(C)C)[C@H](O[C@H]3C[C@@H]4O[C@H]5CC(=O)[C@H](C)O[C@H]5O[C@@H]4[C@H](C)O3)[C@H](C)O2)c2c(cc3c(c2O)C(=O)c2c(O)ccc(O)c2C3=O)[C@H]1C(=O)OC [Cinerubin B hcl] | active: 1.28 |
| COC1=C[C@]23CCCN2CCc2cc4c(cc2[C@@H]3[C@@H]1O)OCO4 [Cephalotaxine] | inactive: 1.03 |
| O=[N+]([O-])c1ccc2c(c1)/C(=N/N=C1c3ccccc3Cc3ccccc31)c1cc([N+](=O)[O-])cc([N+](=O)[O-])c1-2 | active: 1.25 |
| C[C@@H]1OC(=O)[C@H]2C[C@H]3CCCC[C@@H]3[C@@H](/C=C/[C@H]3CCC[C@H](C)N3C)[C@@H]12 [Himbacine] | inactive: 0.56 |
| C[C@@H]1C[C@H]2CC[C@H](O2)[C@H](C)C(=O)O[C@@H](C)C[C@@H]2CC[C@@H](O2)[C@@H](C)C(=O)O[C@H](C)C[C@H]2CC[C@@H](O2)[C@H](C)C(=O)O[C@@H](C)C[C@@H]2CC[C@@H](O2)[C@@H](C)C(=O)O1 [Nonactin] | inactive: 0.5 |
| CC(=O)O[C@@H]1C[C@H]2O[C@@H]3C=C(C)CC[C@]3(C)[C@]1(C)[C@]21CO1 [Trichodermin] | inactive: 0.91 and inactive: 1.19 |
| CC[C@@]1(O)C[C@H](O[C@H]2C[C@H](N(C)C)[C@H](O)[C@H](C)O2)c2c(cc3c(c2O)C(=O)c2c(O)ccc(O)c2C3=O)[C@H]1C(=O)OC | inactive: 0.9 |
| CCC[CH2][Sn]1([CH2]CCC)[S]CC[N]1S(=O)(=O)c1ccc(C)cc1 | inactive: 0.99 |
| CO[C@H]1C[C@H](O[C@H]2CC[C@]3(C=O)[C@H]4CC[C@]5(C)[C@@H](C6=CC(=O)OC6)CC[C@]5(O)[C@@H]4CC[C@]3(O)C2)O[C@H](C)[C@H]1O [Cymarin] | active: 1.26 |
| NC(N)=NOCCC(N)C(=O)O (stereo in doubt) [L-Canavanine Sulphate] | inactive: 1.02 |
